Taken from: PubChem BioAssay AID743121 (NCATS, 2013)
In all, the deposit lists about 26,000 reagents; this is a random part of them. Over the whole deposit, 167 (0.63%) were called active. 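Calls are per gene from RSA p-values that are not deposited; an individual active-marked siRNA can sensitise only weakly.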 A number with no mark means an inactive call. Further read-outs or replicates are left out here.

- Purpose: 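Knock-downs that sensitise breast cancer cells to camptothecin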 (primary screen)
- System: MDA-MB-231 cells, a human breast cancer line
- Reagent: single siRNA against human genes, 20 nM siRNA (0.8 pmol per well)
- Time to read-out: 120 h (drug added 48 h after transfection, read 72 h later)
- Treatment: camptothecin 20 nM (about EC30) for 72 h; vehicle 0.1% DMSO in parallel plates
- Detection: 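Cell viability by ATP luminescence (CellTiter-Glo) as % of non-targeting siRNA wells, and the log2 ratio of viability without drug over viability with camptothecin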
- Reading the numbers: log2 vehicle/camptothecin viability: higher = stronger sensitisation to camptothecin
- Rule for the call: 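Each gene scored by redundant siRNA activity (RSA) over its individual siRNA ratios; a gene is called active at p < 0.001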

log2 vehicle/camptothecin viability, by gene knocked down and reagent
TSC2 (TSC complex subunit 2): SID164392756 -0.475; SID164392757 0.00881; SID164392761 -0.18; SID164392762 -0.216
ASIC2 (acid sensing ion channel subunit 2): SID164351974 -0.319; SID164351976 0.205; SID164351977 -0.537; SID164351978 0.91
CBR1 (carbonyl reductase 1): SID164356812 0.183; SID164356814 -0.0788; SID164356815 0.0513; SID164356816 -0.214
NEK11 (NIMA related kinase 11): SID164533797 0.0425; SID164533800 -0.407; SID164533803 0.534; SID164533805 0.163
INPP1 (inositol polyphosphate-1-phosphatase): SID164371634 -0.33; SID164371635 -0.121; SID164371638 -0.0156; SID164371640 -0.159
GORASP2 (golgi reassembly stacking protein 2): SID164458250 0.228; SID164458251 0.0171; SID164458252 -0.754; SID164458253 0.0811
KDELR1 (KDEL endoplasmic reticulum protein retention receptor 1): SID164414452 0.527; SID164414456 -0.0939; SID164414458 -0.243
ARHGDIG (Rho GDP dissociation inhibitor gamma): SID164354103 0.101; SID164354105 -0.147; SID164354106 -0.237; SID164354107 0.53
GRIA3 (glutamate ionotropic receptor AMPA type subunit 3): SID164367622 -0.251; SID164367623 0.0987; SID164367626 0.0475; SID164367628 0.321
FAM234B (family with sequence similarity 234 member B): SID164495302 -0.0619; SID164495305 -0.25; SID164495306 -0.25; SID164495309 0.0888
PTOV1 (PTOV1 extended AT-hook containing adaptor protein): SID164476772 0.301; SID164476774 -0.412; SID164476775 -0.148; SID164476776 -0.228
STK32C (serine/threonine kinase 32C): SID164614014 0.211; SID164614017 -0.189; SID164614018 -0.421; SID164614020 -0.384
TRPC4: SID164392708 0.0628; SID164392710 -0.618; SID164392714 -0.48; SID164392715 -0.118
HCRTR2 (hypocretin receptor 2): SID164368690 -0.198; SID164368691 -0.353; SID164368696 -0.192; SID164368697 -0.162
GPR162 (G protein-coupled receptor 162): SID164463122 -0.0554; SID164463124 -0.234; SID164463128 -0.349; SID164463130 -0.0306
UBE2K (ubiquitin conjugating enzyme E2 K): SID164368905 -0.515; SID164368909 -0.417; SID164368910 -0.311; SID164368911 -0.615
TRIM38 (tripartite motif containing 38): SID164411302 -0.15; SID164411304 -0.231; SID164411305 0.00198; SID164411306 0.233
DGKZ (diacylglycerol kinase zeta): SID164398175 -0.35 (active); SID164398177 1.01 (active); SID164398178 1.03 (active); SID164398180 -0.0279 (active)

11 of these entries in another layout.
| gene knocked down | PubChem SID | log2 vehicle/camptothecin viability |
| --- | --- | --- |
| ARHGDIG (Rho GDP dissociation inhibitor gamma) | SID164354105 | -0.147 |
| ARHGDIG (Rho GDP dissociation inhibitor gamma) | SID164354106 | -0.237 |
| ARHGDIG (Rho GDP dissociation inhibitor gamma) | SID164354107 | 0.53 |
| GRIA3 (glutamate ionotropic receptor AMPA type subunit 3) | SID164367622 | -0.251 |
| GRIA3 (glutamate ionotropic receptor AMPA type subunit 3) | SID164367623 | 0.0987 |
| GRIA3 (glutamate ionotropic receptor AMPA type subunit 3) | SID164367626 | 0.0475 |
| GRIA3 (glutamate ionotropic receptor AMPA type subunit 3) | SID164367628 | 0.321 |
| FAM234B (family with sequence similarity 234 member B) | SID164495302 | -0.0619 |
| FAM234B (family with sequence similarity 234 member B) | SID164495305 | -0.25 |
| FAM234B (family with sequence similarity 234 member B) | SID164495306 | -0.25 |
| FAM234B (family with sequence similarity 234 member B) | SID164495309 | 0.0888 |
